No constants are given. Whether binding was seen depends on the method and setting. Some results given as binding are weak or reduced against the parent protein; the word gives no strength. Where a sequence is shown, tags or fusion partners need not be part of it.
B1: 10E3 CHD (protein)
CAR polypeptide (scFv, CHD hinge, transmembrane, costimulatory and CD3 zeta domains): QVTLKESGPVLVKPTETLTLTCTVSGFSLINARMGVSWIRQPPGKALEWLAHIFSNAEKSYRTSLKSRLTISKDTSKSQVVLTMTNMDPVDTATYYCARIPGYGGNGDYHYYGMDVWGQGTTVTVSSGGGGSGGGGSGGGGSDIQMTQSPSSLSASLGDRVTITCRASQGIRNDLGWYQQKPGKAPKRLIYASSTLQSGVPSRFSGSGSGTEFTLTISSLQPEDFATYYCLQHNNFPWTFGQGTKVEIKRAAAIEVMYPPPYLDNEKSNGTIIHVKGKHLCPSPLFPGPSKPFWVLVVVGGVLACYSLLVTVAFIIFWVRSKRSRLLHSDYMNMTPRRPGPTRKHYQPYAPPRDFAAYRSRVKFSRSADAPAYQQGQNQLYNELNLGRREEYDVLDKRRGRDPEMGGKPRRKNPQEGLYNELQKDKMAEAYSEIGMKGERRRGKGHDGLYQGLSTATKDTYDALHMQALPPR
B2: 10E3 THD (protein)
CAR polypeptide (scFv, THD hinge, transmembrane, costimulatory and CD3 zeta domains): QVTLKESGPVLVKPTETLTLTCTVSGFSLINARMGVSWIRQPPGKALEWLAHIFSNAEKSYRTSLKSRLTISKDTSKSQVVLTMTNMDPVDTATYYCARIPGYGGNGDYHYYGMDVWGQGTTVTVSSGGGGSGGGGSGGGGSDIQMTQSPSSLSASLGDRVTITCRASQGIRNDLGWYQQKPGKAPKRLIYASSTLQSGVPSRFSGSGSGTEFTLTISSLQPEDFATYYCLQHNNFPWTFGQGTKVEIKRAAALDNEKSNGTIIHVKGKHLCPSPLFPGPSKPFWVLVVVGGVLACYSLLVTVAFIIFWVRSKRSRLLHSDYMNMTPRRPGPTRKHYQPYAPPRDFAAYRSRVKFSRSADAPAYQQGQNQLYNELNLGRREEYDVLDKRRGRDPEMGGKPRRKNPQEGLYNELQKDKMAEAYSEIGMKGERRRGKGHDGLYQGLSTATKDTYDALHMQALPPR
B3: 8B5 CHD (protein)
CAR polypeptide (scFv, CHD hinge, transmembrane, costimulatory and CD3 zeta domains): QIQLVESGGGVVQPGRSLRLSCVASGFTFKNYGMHWVRQAPGKGLEWVAVIWYDGSNEYYGDPVKGRFTISRDNSKNMLYLQMNSLRADDTAVYYCARSGIAVAGAFDYWGQGTLVTVSSGGGGSGGGGSGGGGSEIVLTQSPDTLSLSPGEKATLSCRASQSVSSSFLAWYQQKPGQAPSLLIYVASRRAAGIPDRFSGSGSGTDFTLTISRLEPEDFGMFYCQHYGRTPFTFGPGTKVDIKRAAAIEVMYPPPYLDNEKSNGTIIHVKGKHLCPSPLFPGPSKPFWVLVVVGGVLACYSLLVTVAFIIFWVRSKRSRLLHSDYMNMTPRRPGPTRKHYQPYAPPRDFAAYRSRVKFSRSADAPAYQQGQNQLYNELNLGRREEYDVLDKRRGRDPEMGGKPRRKNPQEGLYNELQKDKMAEAYSEIGMKGERRRGKGHDGLYQGLSTATKDTYDALHMQALPPR
B4: 8B5 THD (protein)
CAR polypeptide (scFv, THD hinge, transmembrane, costimulatory and CD3 zeta domains): QIQLVESGGGVVQPGRSLRLSCVASGFTFKNYGMHWVRQAPGKGLEWVAVIWYDGSNEYYGDPVKGRFTISRDNSKNMLYLQMNSLRADDTAVYYCARSGIAVAGAFDYWGQGTLVTVSSGGGGSGGGGSGGGGSEIVLTQSPDTLSLSPGEKATLSCRASQSVSSSFLAWYQQKPGQAPSLLIYVASRRAAGIPDRFSGSGSGTDFTLTISRLEPEDFGMFYCQHYGRTPFTFGPGTKVDIKRAAALDNEKSNGTIIHVKGKHLCPSPLFPGPSKPFWVLVVVGGVLACYSLLVTVAFIIFWVRSKRSRLLHSDYMNMTPRRPGPTRKHYQPYAPPRDFAAYRSRVKFSRSADAPAYQQGQNQLYNELNLGRREEYDVLDKRRGRDPEMGGKPRRKNPQEGLYNELQKDKMAEAYSEIGMKGERRRGKGHDGLYQGLSTATKDTYDALHMQALPPR

molecular target: T1, FLT3-HIS (human (accession given for hFLT3 in paragraph 116; species not restated for the reagent)) (UniProt P36888); assay: flow cytometry dot plot FSC against FLT3-HIS; CAR on lentivirus-transduced primary human T cells, Donor 2, stained with soluble FLT3-HIS and anti-HIS-PE
T1 sequence (soluble antigen used as staining reagent, looked up): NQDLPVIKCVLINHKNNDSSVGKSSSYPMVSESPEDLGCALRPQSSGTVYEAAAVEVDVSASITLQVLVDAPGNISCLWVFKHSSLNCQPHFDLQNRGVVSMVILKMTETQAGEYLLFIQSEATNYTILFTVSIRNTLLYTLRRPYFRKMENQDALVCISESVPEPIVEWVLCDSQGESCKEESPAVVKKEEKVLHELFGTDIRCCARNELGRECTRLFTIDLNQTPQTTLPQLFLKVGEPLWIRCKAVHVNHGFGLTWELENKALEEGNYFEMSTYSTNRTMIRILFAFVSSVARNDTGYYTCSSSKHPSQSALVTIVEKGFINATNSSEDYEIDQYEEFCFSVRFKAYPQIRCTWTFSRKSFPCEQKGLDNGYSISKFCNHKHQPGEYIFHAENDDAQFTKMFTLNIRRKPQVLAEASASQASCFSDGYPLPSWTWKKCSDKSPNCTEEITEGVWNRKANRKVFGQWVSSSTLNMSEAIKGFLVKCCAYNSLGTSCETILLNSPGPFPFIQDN

binding, binds:
B1
B2
B3
B4
